Data taken from patent publication US20210100913A1, “ACTIVATABLE ANTI-CD166 ANTIBODIES AND METHODS OF USE THEREOF” (priority 2017, published 2021).
Some of these results come from one statement about several compounds together. At least one compound was matched to its structure with a doubt left.

Experiment: pharmacokinetics of total and intact anti-CD166 activatable antibody and metabolites in serum of human subjects
Format: in vivo
Details: human serum after administration of Combination 55

| SMILES | circulating level relative to total anti-CD166 activatable antibody [mol %] |
| --- | --- |
| COc1cc2cc(c1Cl)N(C)C(=O)CC(OC(=O)C(C)N(C)C(=O)CCC(C)(C)SC)C1(C)OC1C(C)C1CC(O)(NC(=O)O1)C(OC)C=CC=C(C)C2 (centres unmarked) [DM4-Me] | < 1.9 |
| COc1cc2cc(c1Cl)N(C)C(=O)C[C@H](OC(=O)[C@H](C)N(C)C(=O)CCC(C)(C)S)[C@]1(C)O[C@H]1[C@H](C)[C@@H]1C[C@@](O)(NC(=O)O1)[C@H](OC)/C=C/C=C(\C)C2 [DM4] | < 1.9 |
